Out of some 400,000 compounds screened, about 13,000 (3.2%) were called active. Inconclusive results, whose numbers are uncertain, are shown with a selection of clear calls. Calls follow the shape of the dose curve; as a rule, active = well fitted cell-killing curve with a large enough effect; inconclusive = small, poorly fitted or top-dose-only effect, or effect the other way; inactive = flat fitted curve, though single readings scatter. Potencies beside an inconclusive call are fits to weak or partial responses and may not hold up.
Assay: qHTS assay for MDR1-selective chemotherapeutics: Primary screen using the drug-selected MDR subline cells KB-V1; also: nearly all actives have a fitted effect of over 60% in size
Details: KB-V1 MDR cells viability, CellTiter-Glo, 72 h; activity change, negative = cytotoxicity: at 46.1 µM (top of the series)
Outline: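 Following 72 h at 37 degrees C with compound, KB-V1 cell viability was read by CellTiter-Glo luminescence, medium being phenol-red-free DMEM plus 10% FBS; concentration-response parameters came from normalized, curve-fitted qHTS data.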
With `Cn1ccc2cc(S(=O)(=O)N3CCC(C(=O)NCCc4ccccc4)CC3)ccc21` the Potency was “inactive”.
For `COCC(=O)Nc1nc(-c2ccc([N+](=O)[O-])cc2)cs1`, the Potency was inconclusive: 0.58 µM [rising, full curve, poor fit].
With `CCCCC(=O)/C=C/n1c(=S)oc2ccccc21` the Potency was inconclusive: 16.4 µM [cytotoxic, single point].
With `CC1CCN(CCCn2c(=S)[nH]c3c(sc4ccccc43)c2=O)CC1` the Potency was inconclusive: 6.51 µM [cytotoxic, partial curve, poor fit].
In the case of `O=C(OCC(=O)C12CC3CC(CC(C3)C1)C2)c1ccc(O)cc1O`, the Potency is reported as “inactive”.
With `N#Cc1c(N)oc(-c2ccco2)c1-c1ccco1` the Potency was “inactive”.
With `Cc1ccc(NS(=O)(=O)c2ccc(C)c(NC(=O)COc3ccc4ccccc4c3)c2)c(C)c1` the Potency was inconclusive: 25.9 µM [cytotoxic, single point].
For `C=C(C)COc1ccc(-c2n[nH]c(C)c2-c2ccc(Br)cc2)c(O)c1`, the Potency was inconclusive: 16.4 µM [cytotoxic, single point].
With `COc1ccc(-c2cc(-c3ccc(OC)cc3)c(C#N)c(SC)n2)cc1` the Potency was “inactive”.
With `CCOC(=O)C1(Cc2ccccc2C)CCCN(C(=O)CSC)C1` (configuration not stated) the Potency was “inactive”.
For `COc1ccc(/C=N/OCC(=O)N=Nc2c(O)[nH]c3ccc(Br)cc23)cc1`, the Potency was inconclusive: 29.1 µM [rising, single point].
For `COc1ccc(N2CCN(Cc3ccc(Br)s3)CC2)cc1`, the Potency was inconclusive: 29.1 µM [cytotoxic, partial curve, poor fit].
For `CCCn1c(C)cc(C(=O)COC(=O)c2cc(S(=O)(=O)NCC(C)C)c(Cl)cc2Cl)c1C`, the Potency was inconclusive: 2.91 µM [cytotoxic, partial curve, poor fit].
For `N#CC1=C(SCC(N)=O)NC2=C(C(=O)c3ccccc32)C1c1ccc(Cl)cc1` (configuration not stated), the Potency was inconclusive: 29.1 µM [cytotoxic, single point].
With `Cc1ccc(S(=O)(=O)N2CCN(C(=O)CNC(=O)c3ccc(Cl)cc3)CC2)cc1` the Potency was inconclusive: 25.9 µM [cytotoxic, single point].
In the case of `CCOc1ccc(-n2c(SCC(N)=O)nc3c([nH]c4ccccc43)c2=O)cc1`, the Potency is reported as “inactive”.
For `O=C1NN=C2CCCCCC12` (configuration not stated), the Potency was “inactive”.
With `COc1ccc(OC)c(NC(=O)N2CCN(S(=O)(=O)c3ccc4c(ccn4C)c3)CC2)c1` the Potency was “inactive”.
With `COc1ccc(-c2nnc(SCC(=O)N3CCCC(C)C3)o2)c(OC)c1` (configuration not stated) the Potency was inconclusive: 7.31 µM [cytotoxic, partial curve].
In the case of `O=C(Nc1cccc(S(=O)(=O)N2CCCCC2)c1)c1ccc(N2CCCC2=O)cc1`, the Potency is reported as inconclusive: 2.06 µM [cytotoxic, full curve, poor fit].
With `CCCc1ccc(C(O)c2ncc(-c3ccccc3C)[nH]2)cc1` (configuration not stated) the Potency was “inactive”.
With `COc1nnc(-c2ccc(N3CCOCC3)c(NC(=O)c3ccc(C)cc3)c2)c2ccccc12` the Potency was inconclusive: 23.1 µM [cytotoxic, single point].
For `COc1cccc(Oc2nc(-c3ccccc3O)nc3ccccc23)c1`, the Potency was “inactive”.
With `NC(=O)C1=C[C@@H](c2csc3ccccc23)C[C@@H](OCCCCO)O1` the Potency was “inactive”.
With `CCNc1oc(-c2ccc(OC)cc2)nc1S(=O)(=O)c1ccc(Br)cc1` the Potency was inconclusive: 2.06 µM [cytotoxic, full curve, poor fit].
In the case of `CCOC(=O)c1c(NC(C)=O)sc2c1CCC(C=O)=C2Sc1ccccc1`, the Potency is reported as inconclusive: 20.6 µM [cytotoxic, partial curve, poor fit].
For `Cc1c(Cl)c([N+](=O)[O-])nn1Cc1ccc(C(=O)N/N=C\c2cccc(Br)c2)o1`, the Potency was inconclusive: 18.4 µM [cytotoxic, single point].
In the case of `COc1ccc(CCNC(=O)C(C)c2ccc([N+](=O)[O-])cc2)cc1` (configuration not stated), the Potency is reported as inconclusive: 29.1 µM [cytotoxic, single point].
For `Cc1cccc(C=Nc2ccccc2C(N)=O)c1`, the Potency was active: 6.51 µM.
With `COc1ccc(-c2cnc3c(NC=O)cc(-c4ccc(C(=O)N5CCOCC5)cc4)cn23)cc1OC` the Potency was inconclusive: 29.1 µM [cytotoxic, single point].
With `Cc1cc(C)c2cc(CN(Cc3cccnc3)C(=O)c3ccc(F)cc3)c(Cl)nc2c1` the Potency was inconclusive: 25.9 µM [cytotoxic, partial curve, poor fit].
For `CC(C)(C)Cc1nnc(NC(=O)c2ccc([N+](=O)[O-])cc2)s1`, the Potency was inconclusive: 14.6 µM [cytotoxic, partial curve, poor fit].
With `Cc1cccc(NC(=O)Cc2cccs2)n1` the Potency was inconclusive: 16.4 µM [rising, partial curve, poor fit].
For `CCOc1ccc2ccccc2c1/C=N/NC(=O)c1cc(C)[nH]n1`, the Potency was inconclusive: 23.1 µM [rising, single point].
With `O=C(CN(Cc1ccccc1Cl)C(=O)c1csnn1)NCc1ccc(F)cc1` the Potency was inconclusive: 16.4 µM [cytotoxic, single point].
For `Cc1nc2ccccc2n1CCc1nc2c3ccccc3nc(SCC(=O)NCc3ccco3)n2n1`, the Potency was inconclusive: 32.6 µM [cytotoxic, single point].
With `Cc1ccc(N2CCN(C(=O)Nc3cccc([N+](=O)[O-])c3)CC2C)cc1` (configuration not stated) the Potency was inconclusive: 14.6 µM [cytotoxic, partial curve].
For `Cc1nc(N2CCN(S(=O)(=O)c3cccc4nonc34)CC2)c2c3c(sc2n1)CCCC3`, the Potency was “inactive”.
In the case of `Cc1nc2ccc(S(=O)(=O)NC(C(=O)NC3CCCC3)C(C)C)cc2s1` (configuration not stated), the activity change, negative = cytotoxicity is reported as inconclusive: -1.25%.
With `CCCCC(=O)NC(=S)Nc1cccc(Cl)c1N1CCCCC1` the Potency was active: 20.6 µM.
With `O=C(c1cccnc1)C1CCCN(Cc2nc(Cc3ccccc3F)no2)C1` (configuration not stated) the Potency was inconclusive: 32.6 µM [cytotoxic, single point].
With `CCn1c(C(=O)N2CCC(C(=O)NCCc3ccc(OC)cc3OC)CC2)cc2sccc21` the Potency was “inactive”.
In the case of `CC(C)N(Cc1nc(-c2ccccc2)no1)C(=O)c1ccc([N+](=O)[O-])cc1`, the Potency is reported as inconclusive: 23.1 µM [cytotoxic, single point].
In the case of `O=C(C/C=N/OCc1ccc(F)cc1Cl)c1cnc(-c2ccccc2)s1`, the Potency is reported as inconclusive: 5.8 µM [cytotoxic, full curve].
With `N#CCC(=O)N/N=C\c1ccc(OC/C=C/c2ccccc2)cc1` the Potency was inconclusive: 29.1 µM [rising, single point].
In the case of `O=C(Nc1ccccc1)N1CCN(c2cccc(C(F)(F)F)c2)CC1`, the Potency is reported as inconclusive: 18.4 µM [cytotoxic, single point].
In the case of `COc1ccc(C(=O)N2CCN=C2SCc2cccnc2)c(OC)c1`, the Potency is reported as inconclusive: 32.6 µM [cytotoxic, single point].
With `O=C(Nc1nc(OCC(F)(F)F)cnc1/C=C\c1ccccc1)c1ccsc1` the Potency was “inactive”.
In the case of `CCc1ccc(S(=O)(=O)c2nnn3c2nc(NC2CCCCCC2)c2sccc23)cc1`, the Potency is reported as “inactive”.
With `CN(C)c1ccc(/C=N/N(CCC(=O)NC(C)(C)C)C2=NS(=O)(=O)c3ccccc32)cc1` the Potency was “inactive”.
With `CCN(CC)CCCN(C(=O)c1cccc(C)c1)c1nc(-c2ccc(OC)cc2)cs1` the Potency was inconclusive: 20.6 µM [cytotoxic, partial curve].
In the case of `CCN1CCN(c2c(S(=O)(=O)c3ccc(OC)cc3)cnc3cc(OC)c(OC)cc23)CC1`, the Potency is reported as inconclusive: 8.2 µM [cytotoxic, partial curve, poor fit].
With `Cn1nc([N+](=O)[O-])nc1Oc1ccc(C(C)(C)C)cc1` the Potency was active: 14.6 µM.
For `O=C(Nc1nc2c(cc3c4c(cccc42)CC3)s1)c1ccccc1Cl`, the Potency was inconclusive: 18.4 µM [cytotoxic, partial curve].
In the case of `COc1cc(CNc2nnnn2C)ccc1OCc1ccc(F)cc1Cl`, the Potency is reported as inconclusive: 29.1 µM [cytotoxic, single point].
In the case of `COc1cc(NC(=O)CCl)ccc(=O)c1`, the Potency is reported as inconclusive: 29.1 µM [cytotoxic, single point].
With `COc1ccccc1Cc1nc2ccccc2[nH]c1=O` the Potency was inconclusive: 18.4 µM [rising, single point].
For `COc1ccccc1/C=C(/C(=O)OCC(=O)Nc1ccc(N(C)C)cc1)c1ccccc1`, the Potency was inconclusive: 14.6 µM [cytotoxic, partial curve].
In the case of `Cc1cc(Cl)c(OCCn2ccnc2)c(Br)c1`, the Potency is reported as inconclusive: 18.4 µM [cytotoxic, single point].
With `CCCCCC(=O)Nc1cc(S(=O)(=O)N2CCOCC2)ccc1Oc1ccc(OCC)cc1` the Potency was inconclusive: 8.2 µM [cytotoxic, partial curve].
With `S=c1[nH]nc(COc2ccccc2)n1/N=C/c1ccc(Br)s1` the Potency was inconclusive: 20.6 µM [cytotoxic, single point].
For `CC(C)[C@H](NC(=O)c1c(F)cccc1F)C(=O)OCC(=O)NNC(=O)c1ccccc1`, the Potency was inconclusive: 20.6 µM [rising, single point].
With `CCCn1c(N)c(C(=O)CSc2nc3ccccc3s2)c(=O)[nH]c1=O` the Potency was inconclusive: 6.51 µM [cytotoxic, partial curve].
In the case of `CCN(C(=O)c1c(-c2ccccc2)noc1C)c1ccccc1`, the Potency is reported as inconclusive: 8.2 µM [cytotoxic, partial curve].
For `CCOCCCNC(=O)C1CCC(CNS(=O)(=O)c2ccc(NC(C)=O)cc2)CC1` (configuration not stated), the Potency was inconclusive: 7.31 µM [rising, partial curve].
With `COc1cc2c(=O)[nH]c3cc([N+](=O)[O-])ccc3c2cc1[N+](=O)[O-]` the Potency was “inactive”.
With `CN(CC(=O)Nc1ccc(S(=O)(=O)N2CCCC2)cc1)Cc1ccc(Cl)c(Cl)c1` the Potency was inconclusive: 20.6 µM [cytotoxic, partial curve].

Reference: PubChem BioAssay AID1347076 (National Center for Advancing Translational Sciences (NCATS), 2019)
% is scaled to controls: 0 for no effect and ±100 for the full control effect; potency is read from the fitted curve at half-maximal effect.
